{"source": "the supplement of paper PMC8728848", "assay_in_all_cases": "glycan array binding signal (z-score within array); higher = stronger binding", "conditions_in_all_cases": "glycan notation: IUPAC condensed, linker removed", "key": {"[1]": {"biological_target": "Gal(a1-3)Gal", "how_it_was_run": "(§1)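 The binding signal is a Z-score computed within each array. Data were drawn from 3228 arrays in the Consortium for Functional Glycomics database, restricted to those with a known protein sequence. Scores were averaged over arrays of the same protein sequence at different concentrations or buffers, and over linkers, and negative values can be taken as non-binding.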"}, "[2]": {"biological_target": "Gal(a1-3)Gal(b1-3)GlcNAc", "how_it_was_run": "as §1"}, "[3]": {"biological_target": "Gal(a1-3)Gal(b1-3)GlcNAc(b1-2)Man", "how_it_was_run": "as §1"}, "[4]": {"biological_target": "Gal(a1-3)Gal(b1-3)GlcNAc(b1-2)Man(a1-3)[Gal(a1-3)Gal(b1-3)GlcNAc(b1-2)Man(a1-6)]Man(b1-4)GlcNAc(b1-4)GlcNAc", "how_it_was_run": "as §1"}, "[5]": {"biological_target": "Gal(a1-3)Gal(b1-3)GlcNAc(b1-3)GalNAc", "how_it_was_run": "as §1"}, "[6]": {"biological_target": "Gal(a1-3)Gal(b1-3)GlcNAc(b1-6)GalNAc", "how_it_was_run": "as §1"}, "[7]": {"biological_target": "Gal(a1-3)Gal(b1-3)[Fuc(a1-4)]GlcNAc(b1-2)Man(a1-3)[Gal(a1-3)Gal(b1-3)[Fuc(a1-4)]GlcNAc(b1-2)Man(a1-6)]Man(b1-4)GlcNAc(b1-4)GlcNAc", "how_it_was_run": "as §1"}, "[8]": {"biological_target": "Gal(a1-3)Gal(b1-4)Glc", "how_it_was_run": "as §1"}, "[9]": {"biological_target": "Gal(a1-3)Gal(b1-4)GlcNAc", "how_it_was_run": "as §1"}, "[10]": {"biological_target": "Gal(a1-3)Gal(b1-4)GlcNAc(b1-2)Man", "how_it_was_run": "as §1"}, "[11]": {"biological_target": "Gal(a1-3)Gal(b1-4)GlcNAc(b1-2)Man(a1-3)[Gal(a1-3)Gal(b1-4)GlcNAc(b1-2)Man(a1-6)]Man(b1-4)GlcNAc(b1-4)GlcNAc", "how_it_was_run": "as §1"}, "[12]": {"biological_target": "Gal(a1-3)Gal(b1-4)GlcNAc(b1-3)GalNAc", "how_it_was_run": "as §1"}, "[13]": {"biological_target": "Gal(a1-3)Gal(b1-4)GlcNAc(b1-6)GalNAc", "how_it_was_run": "as §1"}, "[14]": {"biological_target": "Gal(a1-3)Gal(b1-4)[Fuc(a1-3)]GlcNAc", "how_it_was_run": "as §1"}, "[15]": {"biological_target": "Gal(a1-3)Gal(b1-4)[Fuc(a1-3)]GlcNAc(b1-2)Man(a1-3)[Gal(a1-3)Gal(b1-4)[Fuc(a1-3)]GlcNAc(b1-2)Man(a1-6)]Man(b1-4)GlcNAc(b1-4)GlcNAc", "how_it_was_run": "as §1"}, "[16]": {"biological_target": "Gal(a1-3)GalNAc", "how_it_was_run": "as §1"}, "[17]": {"biological_target": "Gal(a1-3)[Gal(a1-4)]Gal(b1-4)GlcNAc", "how_it_was_run": "as §1"}, "[18]": {"biological_target": "Gal(a1-4)Gal(b1-3)GlcNAc(b1-2)Man(a1-3)[Gal(a1-4)Gal(b1-3)GlcNAc(b1-2)Man(a1-6)]Man(b1-4)GlcNAc(b1-4)GlcNAc", "how_it_was_run": "as §1"}, "[19]": {"biological_target": "Gal(a1-4)Gal(b1-4)Glc", "how_it_was_run": "as §1"}, "[20]": {"biological_target": "Gal(a1-4)Gal(b1-4)GlcNAc", "how_it_was_run": "as §1"}, "[21]": {"biological_target": "Gal(a1-4)Gal(b1-4)GlcNAc(b1-2)Man(a1-3)[Gal(a1-4)Gal(b1-4)GlcNAc(b1-2)Man(a1-6)]Man(b1-4)GlcNAc(b1-4)GlcNAc", "how_it_was_run": "as §1"}, "[22]": {"biological_target": "Gal(a1-4)Gal(b1-4)GlcNAc(b1-3)Gal(b1-4)Glc", "how_it_was_run": "as §1"}, "[23]": {"biological_target": "Gal(a1-4)GlcNAc", "how_it_was_run": "as §1"}, "[24]": {"biological_target": "Gal(a1-6)Glc", "how_it_was_run": "as §1"}, "[25]": {"biological_target": "Gal(b1-2)Gal", "how_it_was_run": "as §1"}, "[26]": {"biological_target": "Gal(b1-3)Gal", "how_it_was_run": "as §1"}, "[27]": {"biological_target": "Gal(b1-3)Gal(b1-4)GlcNAc", "how_it_was_run": "as §1"}, "[28]": {"biological_target": "Gal(b1-3)GalNAc", "how_it_was_run": "as §1"}, "[29]": {"biological_target": "Gal(b1-3)GalNAc(a1-3)[Fuc(a1-2)]Gal(b1-4)Glc", "how_it_was_run": "as §1"}, "[30]": {"biological_target": "Gal(b1-3)GalNAc(a1-3)[Fuc(a1-2)]Gal(b1-4)GlcNAc", "how_it_was_run": "as §1"}, "[31]": {"biological_target": "Gal(b1-3)GalNAc(b1-3)Gal", "how_it_was_run": "as §1"}, "[32]": {"biological_target": "Gal(b1-3)GalNAc(b1-3)Gal(a1-4)Gal(b1-4)Glc", "how_it_was_run": "as §1"}, "[33]": {"biological_target": "Gal(b1-3)GalNAc(b1-4)Gal(b1-4)Glc", "how_it_was_run": "as §1"}, "[34]": {"biological_target": "Gal(b1-3)GalNAc(b1-4)[Neu5Ac(a2-3)]Gal(b1-4)Glc", "how_it_was_run": "as §1"}, "[35]": {"biological_target": "Gal(b1-3)GlcNAc", "how_it_was_run": "as §1"}, "[36]": {"biological_target": "Gal(b1-3)GlcNAc(a1-3)Gal(b1-4)GlcNAc", "how_it_was_run": "as §1"}, "[37]": {"biological_target": "Gal(b1-3)GlcNAc(a1-6)Gal(b1-4)GlcNAc", "how_it_was_run": "as §1"}, "[38]": {"biological_target": "Gal(b1-3)GlcNAc(b1-2)Man", "how_it_was_run": "as §1"}}, "note": "The other results are listed elsewhere or left out.", "data": [{"binder": "MUB70 (Lactobacillus reuteri) (protein) CVHVQYIDGETDQMLRQDDLDGYTDETIPYSTAEGIKKFEGDGYELFKDNFPAGEKFDNDDTNDQFYTVIF", "values": [{"measurement": "glycan array binding signal (z-score)", "setting": "[1]", "result": 0.113}, {"measurement": "glycan array binding signal (z-score)", "setting": "[2]", "result": -0.284}, {"measurement": "glycan array binding signal (z-score)", "setting": "[3]", "result": 0.16}, {"measurement": "glycan array binding signal (z-score)", "setting": "[4]", "result": 0.108}, {"measurement": "glycan array binding signal (z-score)", "setting": "[5]", "result": -0.062}, {"measurement": "glycan array binding signal (z-score)", "setting": "[6]", "result": -0.138}, {"measurement": "glycan array binding signal (z-score)", "setting": "[7]", "result": 0.401}, {"measurement": "glycan array binding signal (z-score)", "setting": "[8]", "result": -0.469}, {"measurement": "glycan array binding signal (z-score)", "setting": "[9]", "result": -0.676}, {"measurement": "glycan array binding signal (z-score)", "setting": "[10]", "result": 0.009}, {"measurement": "glycan array binding signal (z-score)", "setting": "[11]", "result": 0.332}, {"measurement": "glycan array binding signal (z-score)", "setting": "[12]", "result": 1.11}, {"measurement": "glycan array binding signal (z-score)", "setting": "[13]", "result": -0.422}, {"measurement": "glycan array binding signal (z-score)", "setting": "[14]", "result": -0.625}, {"measurement": "glycan array binding signal (z-score)", "setting": "[15]", "result": 1.64}, {"measurement": "glycan array binding signal (z-score)", "setting": "[16]", "result": 0.694}, {"measurement": "glycan array binding signal (z-score)", "setting": "[17]", "result": -0.57}, {"measurement": "glycan array binding signal (z-score)", "setting": "[18]", "result": -0.288}, {"measurement": "glycan array binding signal (z-score)", "setting": "[19]", "result": 1.16}, {"measurement": "glycan array binding signal (z-score)", "setting": "[20]", "result": -0.386}, {"measurement": "glycan array binding signal (z-score)", "setting": "[21]", "result": 0.445}, {"measurement": "glycan array binding signal (z-score)", "setting": "[22]", "result": 0.192}, {"measurement": "glycan array binding signal (z-score)", "setting": "[23]", "result": -0.556}, {"measurement": "glycan array binding signal (z-score)", "setting": "[24]", "result": -0.626}, {"measurement": "glycan array binding signal (z-score)", "setting": "[25]", "result": 2.16}, {"measurement": "glycan array binding signal (z-score)", "setting": "[26]", "result": -0.503}, {"measurement": "glycan array binding signal (z-score)", "setting": "[27]", "result": -0.49}, {"measurement": "glycan array binding signal (z-score)", "setting": "[28]", "result": -0.066}, {"measurement": "glycan array binding signal (z-score)", "setting": "[29]", "result": 0.46}, {"measurement": "glycan array binding signal (z-score)", "setting": "[30]", "result": -0.154}, {"measurement": "glycan array binding signal (z-score)", "setting": "[31]", "result": 1.55}, {"measurement": "glycan array binding signal (z-score)", "setting": "[32]", "result": -0.338}, {"measurement": "glycan array binding signal (z-score)", "setting": "[33]", "result": -0.464}, {"measurement": "glycan array binding signal (z-score)", "setting": "[34]", "result": -0.163}, {"measurement": "glycan array binding signal (z-score)", "setting": "[35]", "result": -0.488}, {"measurement": "glycan array binding signal (z-score)", "setting": "[36]", "result": 0.396}, {"measurement": "glycan array binding signal (z-score)", "setting": "[37]", "result": 0.052}, {"measurement": "glycan array binding signal (z-score)", "setting": "[38]", "result": 0.491}]}]}
